Drawing on publication PMC9508819, “Rbp95 binds to 25S rRNA helix H95 and cooperates with the Npa1 complex during early pre-60S particle maturation”, this text covers binding for seven molecules.

Amino acid sequences for entries named in this document (tags omitted). A change or cut given only in a name is not applied to a line headed by its entry.
UniProt P17076: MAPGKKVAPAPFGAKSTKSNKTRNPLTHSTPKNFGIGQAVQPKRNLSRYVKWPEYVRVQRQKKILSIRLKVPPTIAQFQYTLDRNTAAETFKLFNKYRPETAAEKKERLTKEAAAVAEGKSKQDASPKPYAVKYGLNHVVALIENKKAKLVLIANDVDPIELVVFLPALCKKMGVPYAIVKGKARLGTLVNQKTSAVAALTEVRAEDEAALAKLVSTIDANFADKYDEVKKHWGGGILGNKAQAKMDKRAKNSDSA
UniProt P34241: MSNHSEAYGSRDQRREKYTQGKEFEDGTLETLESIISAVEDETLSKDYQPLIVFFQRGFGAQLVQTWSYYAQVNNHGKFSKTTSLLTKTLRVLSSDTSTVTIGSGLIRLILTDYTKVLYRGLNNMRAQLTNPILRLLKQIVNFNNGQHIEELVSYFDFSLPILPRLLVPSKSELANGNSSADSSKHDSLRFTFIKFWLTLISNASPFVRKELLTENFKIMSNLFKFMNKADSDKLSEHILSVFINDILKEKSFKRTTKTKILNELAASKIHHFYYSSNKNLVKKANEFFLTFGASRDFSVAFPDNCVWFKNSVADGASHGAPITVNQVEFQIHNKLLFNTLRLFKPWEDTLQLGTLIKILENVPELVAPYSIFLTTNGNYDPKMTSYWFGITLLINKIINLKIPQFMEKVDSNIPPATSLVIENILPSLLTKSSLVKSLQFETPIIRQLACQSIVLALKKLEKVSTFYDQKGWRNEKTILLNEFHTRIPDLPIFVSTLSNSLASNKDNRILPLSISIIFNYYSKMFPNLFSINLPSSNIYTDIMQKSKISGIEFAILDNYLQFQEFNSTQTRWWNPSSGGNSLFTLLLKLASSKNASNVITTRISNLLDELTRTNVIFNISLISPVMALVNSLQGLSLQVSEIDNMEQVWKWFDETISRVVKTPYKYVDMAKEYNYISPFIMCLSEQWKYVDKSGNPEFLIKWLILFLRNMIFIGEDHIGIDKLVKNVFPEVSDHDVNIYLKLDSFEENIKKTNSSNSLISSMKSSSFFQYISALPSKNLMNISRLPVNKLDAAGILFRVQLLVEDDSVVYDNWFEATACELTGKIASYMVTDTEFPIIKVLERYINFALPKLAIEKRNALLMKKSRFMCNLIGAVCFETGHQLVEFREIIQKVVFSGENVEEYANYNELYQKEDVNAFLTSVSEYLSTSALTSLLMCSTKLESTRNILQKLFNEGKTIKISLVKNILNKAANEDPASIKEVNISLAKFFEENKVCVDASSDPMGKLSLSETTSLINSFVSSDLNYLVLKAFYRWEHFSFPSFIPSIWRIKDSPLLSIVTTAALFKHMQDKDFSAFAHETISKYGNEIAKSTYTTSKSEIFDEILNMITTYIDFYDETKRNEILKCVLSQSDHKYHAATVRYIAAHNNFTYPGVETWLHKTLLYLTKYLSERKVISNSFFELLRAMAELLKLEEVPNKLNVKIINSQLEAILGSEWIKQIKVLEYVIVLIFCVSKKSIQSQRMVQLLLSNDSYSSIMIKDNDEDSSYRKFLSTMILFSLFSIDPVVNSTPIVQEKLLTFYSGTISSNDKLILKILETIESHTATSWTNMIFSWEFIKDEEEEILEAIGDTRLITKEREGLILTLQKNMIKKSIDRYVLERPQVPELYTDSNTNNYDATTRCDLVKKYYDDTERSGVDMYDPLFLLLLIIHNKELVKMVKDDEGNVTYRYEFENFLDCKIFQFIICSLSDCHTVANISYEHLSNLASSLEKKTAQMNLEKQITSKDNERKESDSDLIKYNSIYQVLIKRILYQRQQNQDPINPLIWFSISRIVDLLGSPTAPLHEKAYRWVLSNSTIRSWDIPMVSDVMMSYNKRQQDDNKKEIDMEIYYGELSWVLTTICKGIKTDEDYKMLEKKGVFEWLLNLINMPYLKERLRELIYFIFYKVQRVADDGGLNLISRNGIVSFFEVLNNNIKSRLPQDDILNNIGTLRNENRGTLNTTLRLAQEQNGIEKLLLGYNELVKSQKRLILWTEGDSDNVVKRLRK

No constants are given. Whether binding was seen depends on the method and setting. Binding seen in cells or lysates may run through a third protein. A yes stands for co-enrichment or nearness to the bait. Other partners may have been found.

For test [1], the target named is T1, Noc2-TAP (S. cerevisiae) (UniProt P39744).
T1 sequence: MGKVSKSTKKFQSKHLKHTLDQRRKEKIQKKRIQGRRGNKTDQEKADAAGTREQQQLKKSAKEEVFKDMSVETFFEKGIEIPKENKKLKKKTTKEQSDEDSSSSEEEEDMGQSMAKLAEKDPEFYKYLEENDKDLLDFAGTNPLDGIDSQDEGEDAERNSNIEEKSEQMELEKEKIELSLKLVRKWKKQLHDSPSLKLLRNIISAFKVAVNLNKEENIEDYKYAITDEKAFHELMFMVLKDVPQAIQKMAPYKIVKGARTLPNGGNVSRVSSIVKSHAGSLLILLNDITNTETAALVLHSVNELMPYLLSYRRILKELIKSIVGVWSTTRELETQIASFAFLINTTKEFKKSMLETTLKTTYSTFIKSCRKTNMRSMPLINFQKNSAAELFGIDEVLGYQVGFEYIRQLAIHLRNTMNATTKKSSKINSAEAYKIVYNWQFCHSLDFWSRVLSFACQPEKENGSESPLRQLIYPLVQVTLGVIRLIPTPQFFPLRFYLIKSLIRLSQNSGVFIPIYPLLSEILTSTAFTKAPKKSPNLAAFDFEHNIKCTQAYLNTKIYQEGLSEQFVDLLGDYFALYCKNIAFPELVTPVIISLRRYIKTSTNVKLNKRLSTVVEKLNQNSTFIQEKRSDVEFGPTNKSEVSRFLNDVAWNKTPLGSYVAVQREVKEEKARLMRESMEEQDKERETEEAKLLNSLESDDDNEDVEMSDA
The test can be described thus: affinity purification with mass spectrometry; tandem-affinity purification from yeast lysate, elution from Calmodulin Sepharose with 0.8% ammonium hydroxide; label-free semi-quantitative LC-MS/MS (LFQ, MaxQuant); for Figure 8A, B from wild-type and Δrbp95 strains.

Test [2] has as its target T2, Ssf1-TAP (S. cerevisiae) (UniProt P38789).
T2 sequence: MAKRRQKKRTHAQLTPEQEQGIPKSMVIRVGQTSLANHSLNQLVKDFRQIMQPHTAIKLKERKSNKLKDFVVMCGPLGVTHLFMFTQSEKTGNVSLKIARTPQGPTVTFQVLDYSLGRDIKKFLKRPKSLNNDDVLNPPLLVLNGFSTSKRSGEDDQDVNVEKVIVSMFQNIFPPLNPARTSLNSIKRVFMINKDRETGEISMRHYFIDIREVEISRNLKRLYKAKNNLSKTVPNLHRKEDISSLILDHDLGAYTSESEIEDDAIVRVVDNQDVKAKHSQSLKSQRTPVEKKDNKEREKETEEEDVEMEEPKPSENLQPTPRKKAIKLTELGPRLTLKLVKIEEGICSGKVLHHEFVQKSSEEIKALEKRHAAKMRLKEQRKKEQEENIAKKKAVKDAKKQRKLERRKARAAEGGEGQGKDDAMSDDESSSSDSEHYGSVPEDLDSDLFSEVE
The test is described as above.

In test [3] the target is T3, Rbp95-TAP (S. cerevisiae) (UniProt P25617).
T3 sequence: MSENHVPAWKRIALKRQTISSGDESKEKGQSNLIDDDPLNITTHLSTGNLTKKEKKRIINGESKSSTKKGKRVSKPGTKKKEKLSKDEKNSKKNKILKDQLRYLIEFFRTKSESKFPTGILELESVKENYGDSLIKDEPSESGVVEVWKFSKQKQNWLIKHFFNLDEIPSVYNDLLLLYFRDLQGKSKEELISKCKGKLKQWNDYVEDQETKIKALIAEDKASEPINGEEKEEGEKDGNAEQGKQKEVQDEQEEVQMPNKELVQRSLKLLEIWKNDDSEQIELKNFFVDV
The test is described as above.

The target in test [4] is T4, Rbp95-TurboID (S. cerevisiae) (UniProt P25617).
T4 sequence: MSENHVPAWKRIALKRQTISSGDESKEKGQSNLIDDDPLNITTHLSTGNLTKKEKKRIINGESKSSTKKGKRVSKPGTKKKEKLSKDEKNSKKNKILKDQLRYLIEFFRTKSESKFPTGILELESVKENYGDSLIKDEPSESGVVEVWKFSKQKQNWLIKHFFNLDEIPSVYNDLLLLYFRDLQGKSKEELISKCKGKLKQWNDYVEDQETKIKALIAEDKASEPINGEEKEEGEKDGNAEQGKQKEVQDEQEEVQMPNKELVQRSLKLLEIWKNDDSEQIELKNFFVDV
The test can be described thus: proximity labelling; TurboID: C-terminally TurboID-tagged bait from the CUP1 promoter in yeast, 500 uM copper sulfate and biotin for 1 h; biotinylated proteins purified on streptavidin agarose, LC-MS/MS; enrichment against NLS-GFP-TurboID control.

Regarding Rpl8 (from UniProt P17076), the binding entry in test [1] and in test [2] was “binds” each time.

Consider Npa1 (from UniProt P34241 1-1764), for which the binding entry in test [3], in test [1] and in test [4] was “binds” each time.

B1: Dbp7 (enzyme, UniProt P36120 1-742)
chain: MSDEDSMLLNFTTNEDTAGSSYKQAAKVTGGRWKDRRRMKMKLEGKTVSRKRKANTTGDEGIIPGRGENSIKKLHKESSYSSEEQEKYKGRNAHNTQGRTLPADSQFVSSLFTSNREITTAVNTNIHDENVAINPSNAPLKGDQFASLGVSSLLVSHLEQKMRIKKPTSIQKQAIPQIIGNAGKNDFFIHAQTGSGKTLSYLLPIISTILNMDTHVDRTSGAFALVIAPTRELASQIYHVCSTLVSCCHYLVPCLLIGGERKKSEKARLRKGCNFIIGTPGRVLDHLQNTKVIKEQLSQSLRYIVLDEGDKLMELGFDETISEIIKIVHDIPINSEKFPKLPHKLVHMLCSATLTDGVNRLRNVALKDYKLISNGTKKDSDIVTVAPDQLLQRITIVPPKLRLVTLAATLNNITKDFIASGQQSKTLRTIVFVSCSDSVEFHYDAFSGSDGHHKNLTGDSVRLLTKGNTMFPCFSDSRDPDVVIYKLHGSLSQQMRTSTLQHFARDNEATKGKHLIMFCTDVASRGLDLPHVGSVIELDPPFAVEDHLHRVGRTARAGEKGESLLFLLPGEEEKYMDYIQPYHPMGWELLKFDKEILMPAFKDVNVNRNDKFIRKDEKSSKNKDVGDKEYEWDTNATTWHLNIERRVVGDSAFKNLAVKGFISHVRAYATHISQEKKFFNVKFLHLGHLAKSFGLRERPKAMGLQSSKDGNSEKKPTKENSKNKMFRMARMAEKQIASEFNY
As for B1, the binding entry in test [3], in test [1] and in test [4] was “binds” each time.

B2: Sda1 (protein, UniProt P53313 1-767)
chain: MGRRSRAAMLPTNIILLQNLVKRDPESYQEEFLQQYAHYESLRDIFMLNGLAGGDSAAATNGLDVGNGSSTMAGTNGTTMSTSTSQLIELVGFVSQVCSCFPRETANFPSELKQLLLEHHKSLPFELKEKILSCLTMLRNKDVITAEELIQSLFPLLVAYSSHGNSLGVNSHAKELRKIIYTNLISLLKSCNTNGKNQKLNKSTQAVCFNLLDQPDSQGIWATKLTRELWRRGIWDDSRTVEIMTQAALHQDVKIVMSGVMFFLDADREREENFEENSEDEDGFDLDALRHKMQVNKKTGRRGKKLENAIKTVKKKKKNGPGAPQGYLNFSAIHLLRDPQGFAEKLFKEHLSGKTKNKFDMEQKISLMQLLSRLIGTHKLIVLGIYTFFLKYLTPKQRDVTRIMSACAQACHDLVPPEVINVMVRKIADEFVSDGVANEVAAAGINTIREICSRAPLAIDEILLQDLVEYKGSKAKGVNMAAKSLIALYRDVAPEMLKKKDRGKNAAMEVQEAKKGGKDSKRPQFGADNSVQGIAGIELLAKWKKEHGEESENEDADANWEVDVDSEEDDVDGEWVTMDSDKEYDVDMEDSDDEKDNAKGKESDSDLELSDDDDEKEVKDEQEDADIDPEAAFREIASTRILTPADFAKLQELRNEESVAKIMGIHKQDKREELVDASTLTGPIKYKQSREERLQKVLEGREGRDKFGSRRGKRDNMRSTTNREKERRKNFVMSIHKRSVRGKQKMSLRDKQKVLRAHITKQKKKGY
As to B2, the binding entry in test [3], in test [1] and in test [4] was “binds” in each case.

B3: Utp5 (protein, UniProt Q04177 1-643)
chain: MDSPVLQSAYDPSGQYLCYVTVALDKQRVGVQPTQRATSSGVDTVWNENFLYLEDSKLKVTCLKWVNLASSDTVAIILGMNNGEIWLYSVLANEVTYKFTTGNSYEIKDIDLMGNQLWCIDSSDAFYQFDLLQFKLLQHFRINNCVQLNKLTIVPAGDSVAQLLVASHSISLIDIEEKKVVMTFPGHVSPVSTLQVITNEFFISGAEGDRFLNVYDIHSGMTKCVLVAESDIKELSHSGQADSIAVTTEDGSLEIFVDPLVSSSTKKRGNKSKKSSKKIQIVSKDGRKVPIYNAFINKDLLNVSWLQNATMPYFKNLQWREIPNEYTVEISLNWNNKNKSADRDLHGKDLASATNYVEGNARVTSGDNFKHVDDAIKSWERELTSLEQEQAKPPQANELLTETFGDKLESSTVARISGKKTNLKGSNLKTATTTGTVTVILSQALQSNDHSLLETVLNNRDERVIRDTIFRLKPALAVILLERLAERIARQTHRQGPLNVWVKWCLIIHGGYLVSIPNLMSTLSSLHSTLKRRSDLLPRLLALDARLDCTINKFKTLNYEAGDIHSSEPVVEEDEDDVEYNEELDDAGLIEDGEESYGSEEEEEGDSDNEEEQKHTSSKQDGRLETEQSDGEEEAGYSDVEME
As for B3, in test [2], the binding entry is “binds weakly”.

B4: Utp18 (protein, UniProt P40362 1-594)
chain: MTMATTAMNVSVPPPDEEEQLLAKFVFGDTTDLQENLAKFNADFIFNEQEMDVEDQEDEGSESDNSEEDEAQNGELDHVNNDQLFFVDDGGNEDSQDKNEDTMDVDDEDDSSSDDYSEDSEEAAWIDSDDEKIKVPILVTNKTKKLRTSYNESKINGVHYINRLRSQFEKIYPRPKWVDDESDSELDDEEDDEEEGSNNVINGDINALTKILSTTYNYKDTLSNSKLLPPKKLDIVRLKDANASHPSHSAIQSLSFHPSKPLLLTGGYDKTLRIYHIDGKTNHLVTSLHLVGSPIQTCTFYTSLSNQNQQNIFTAGRRRYMHSWDLSLENLTHSQTAKIEKFSRLYGHESTQRSFENFKVAHLQNSQTNSVHGIVLLQGNNGWINILHSTSGLWLMGCKIEGVITDFCIDYQPISRGKFRTILIAVNAYGEVWEFDLNKNGHVIRRWKDQGGVGITKIQVGGGTTTTCPALQISKIKQNRWLAVGSESGFVNLYDRNNAMTSSTPTPVAALDQLTTTISNLQFSPDGQILCMASRAVKDALRLVHLPSCSVFSNWPTSGTPLGKVTSVAFSPSGGLLAVGNEQGKVRLWKLNHY
In the case of B4, in test [2], the binding entry is “binds weakly”.

B5: Noc1 (protein, UniProt Q12176 1-1025)
chain: MSENNGNPLDLSSLRNKISSKLRDNNSKKAKKTHKGKDVKASSNSKKVNEDIRREALALGASEEDLKLIQGLSDDDDAKSEQEFDAVADEDADDKGFKNDLQNFMKNVGFDQHKLEDVDDDDIEEESTSSKESKIPAQEKEHAQSNIASSTIEKTSQESIDNGSEQEENTVEEANLSSDQEPESESAEKEKKEEKDGGLITQTTIISSDKLIIPYDKPWYEIPLDPQVGQNDDVEELSKEQIEKLFERGKQTLEADNQTYYEEFTKDSSQAKFMSQILSDGTLNDKISAVTLLIQDSPLHNTKSLETLVSYCGKKSRNSALQSLNALKDLFLNGLLPNRKLRYFKNQPGLSMMLNKKTLAIFYFEDYLKKLFFRVLEVLEVLSHDPIIHVRLQILNHVFDLLTNQPEQEFNLLRLGVNKIGDIDSKVSSKASYLLLKLEQAHPNMKSIVIDAIVDIALRPNADYHTTYYSVITLNQTILKRSEDSVANKLVKTYFTLFEKFLINTDKDNTNGVVKSNSKSYEEKRKKNFKKGKHGGKSVKIEKTENEVLDEKNSKLFSALLTGINRAFPFAQIPASVYEVHMETLFKITHSSNFNTSIQALVLINQVTVKAKLNSDRYYRTLYESLFDPRLVNSSKQGIYLNLLYKSLKQDALNVERVEAFVKRILQVCSHWLNVGTITGFFFLLIQLAKTVPQIKNLLTNTPVDYEYESDAEEEQGDKDIKRKEYDGRKRDPKFANAEKSSLWEINNFINHFHPTVKTYANAYVTGETEQIAKPDLGLFTLSHFLDRFVYRSAKQTNTARGTSIMQPLFSGSRVNDSVLVKASDIMHDQGPVNTEDWLTKKVEDIKPEDKFFYQYFTTKKTADGKGKKSNKASNFDSDDEMDENEIWSALVKSRPDVEDDSDDSELDFAEDDFSDSTSDDEPKLDAIDDEDAKSEGSQESDQEEGLDEDIFYSFDGEQDNSDKKRSFAESSEEDESSEEEKEEEENKEVSAKRAKKKQRKNMLKSLPVFASADDYAQYLDQDSD
For the molecule B5, the binding entry in test [2] is recorded as “binds”.
